Results: patent US20030059419A1
These are yes or no findings as the source states them, for the method shown. Binding seen in cells or lysates may run through a third protein. Some entries that bind do so weakly or less than the wild type. Where a sequence is shown, tags or fusion partners need not be part of it.

What was measured:
[1] = molecular target: T1, Myc-I-TRAF (human I-TRAF, full length, with a Myc epitope added to the N-terminal) (human) (UniProt Q92844); test: co-immunoprecipitation and western blot from transfected cells
T1 sequence (looked up): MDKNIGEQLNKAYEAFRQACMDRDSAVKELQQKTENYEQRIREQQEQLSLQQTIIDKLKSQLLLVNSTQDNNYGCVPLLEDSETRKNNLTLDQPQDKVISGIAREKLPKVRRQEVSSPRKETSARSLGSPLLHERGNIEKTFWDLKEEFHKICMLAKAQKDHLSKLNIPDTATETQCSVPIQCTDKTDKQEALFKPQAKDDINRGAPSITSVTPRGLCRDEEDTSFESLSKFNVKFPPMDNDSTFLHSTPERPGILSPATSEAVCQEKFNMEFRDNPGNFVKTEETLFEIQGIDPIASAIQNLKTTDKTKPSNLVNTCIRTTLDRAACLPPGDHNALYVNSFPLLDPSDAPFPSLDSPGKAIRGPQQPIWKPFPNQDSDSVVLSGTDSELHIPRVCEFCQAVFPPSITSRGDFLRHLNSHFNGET

[2] = molecular target: T1, Myc-I-TRAF (human I-TRAF, full length, with a Myc epitope added to the N-terminal) (human); test: co-immunoprecipitation from COS-7 cells (anti-Myc or anti-Flag IP, anti-Flag or anti-Myc western blot)
[3] = molecular target: T1, Myc-I-TRAF (human I-TRAF, full length, with a Myc epitope added to the N-terminal) (human); test: summary of the yeast two hybrid and co-immunoprecipitation experiments

- binding [1]: binds
- binding [2]: binds
- binding [3]: binds
B1: Flag-IKK-i (human IKK-i with a Flag epitope linked to the N-terminal) (enzyme, not shown: small tags and cut ends)
chain: MQSTANYLWHTDDLLGQGATASVYKARNKKSGELVAVKVFNTTSYLRPREVQVREFEVLRKLNHQNIVKLFAVEETGGSRQKVLVMEYCSSGSLLSVLESPENAFGLPEDEFLVVLRCVVAGMNHLRENGIVHRDIKPGNIMRLVGEEGQSIYKLTDFGAARELDDDEKFVSVYGTEEYLHPDMYERAVLRKPQQKAFGVTVDLWSIGVTLYHAATGSLPFIPFGGPRRNKEIMYRITTEKPAGAIAGAQRRENGPLEWSYTLPITCQLSLGLQSQLVPILANILEVEQAKCWGFDQFFAETSDILQRVVVHVFSLSQAVLHHIYIHAHNTIAIFQEAVHKQTSVAPRHQEYLFEGHLCVLEPSVSAQHIAHTTASSPLTLFSTAIPKGLAFRDPALDVPKFVPKVDLQADYNTAKGVLGAGYQALRLARALLDGQELMFRGLHWVMEVLQATCRRTLEVARTSLLYLSSSLGTERFSSVAGTPEIQELKAAAELRSRLRTLAEVLSRCSQNITETQESLSSLNRELVKSRDQVHEDRSIQQIQCCLDKMNFIYKQFKKSRMRPGLGYNEEQIHKLDKVNFSHLAKRLLQVFQEECVQKYQASLVTHGKRMRVVHETRNHLRLVGCSVAACNTEAQGVQESLSKLLEELSHQLLQDRAKGAQASPPPIAPYPSPTRKDLLLHMQELCEGMKLLASDLLDNNRIIERLNRVPAPPDV
